Test results as given in patent US20240218377.
Where cells or extracts were used, other partners may take part. A negative result means that nothing was seen under these conditions.

By UniProt entry, the sequences of proteins in these tests, tags left out. Residues count along the entry.
UniProt P16422, 24-314: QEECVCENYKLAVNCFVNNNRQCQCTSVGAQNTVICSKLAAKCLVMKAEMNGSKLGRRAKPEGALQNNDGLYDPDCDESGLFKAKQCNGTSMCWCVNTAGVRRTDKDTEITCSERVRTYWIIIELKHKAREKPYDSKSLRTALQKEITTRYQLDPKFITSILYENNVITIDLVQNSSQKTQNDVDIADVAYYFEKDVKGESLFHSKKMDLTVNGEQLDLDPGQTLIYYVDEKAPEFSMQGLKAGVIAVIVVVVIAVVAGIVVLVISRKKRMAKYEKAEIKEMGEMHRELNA
UniProt P16070, 21-742: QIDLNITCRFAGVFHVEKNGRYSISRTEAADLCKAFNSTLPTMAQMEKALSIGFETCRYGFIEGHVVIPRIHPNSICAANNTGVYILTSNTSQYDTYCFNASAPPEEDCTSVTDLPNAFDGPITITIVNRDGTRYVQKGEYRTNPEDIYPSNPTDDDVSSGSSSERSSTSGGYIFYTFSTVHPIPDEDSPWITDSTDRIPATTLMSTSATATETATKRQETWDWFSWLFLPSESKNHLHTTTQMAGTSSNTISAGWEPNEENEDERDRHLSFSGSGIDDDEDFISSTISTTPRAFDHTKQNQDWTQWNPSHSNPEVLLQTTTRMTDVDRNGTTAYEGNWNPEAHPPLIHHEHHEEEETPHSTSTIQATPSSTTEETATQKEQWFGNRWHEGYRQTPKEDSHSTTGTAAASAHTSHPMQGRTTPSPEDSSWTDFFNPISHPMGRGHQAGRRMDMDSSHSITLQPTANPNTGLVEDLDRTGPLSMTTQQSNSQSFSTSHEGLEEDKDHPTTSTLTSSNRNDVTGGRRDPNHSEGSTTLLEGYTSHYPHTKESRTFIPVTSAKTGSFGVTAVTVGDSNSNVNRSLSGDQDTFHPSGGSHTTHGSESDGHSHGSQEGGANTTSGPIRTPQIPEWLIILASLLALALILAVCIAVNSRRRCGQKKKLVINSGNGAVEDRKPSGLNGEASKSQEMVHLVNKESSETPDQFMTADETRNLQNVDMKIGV

Columns and labels:
[1] = target: EpCAM (on OVCAR8 ovarian cancer cells) (Homo sapiens) (UniProt P16422); test: flow cytometry; conditions: protein on the cell surface
[2] = target: CD44 (on OVCAR8 ovarian cancer cells) (Homo sapiens) (UniProt P16070); test: flow cytometry; conditions: protein on the cell surface
[3] = 2'-F, 1 uM Cy5-MG used as negative control on OVCAR8 cells, label: 3'-Cy5

Row | Sequence | binding result ([1]; 2'-F pyrimidines throughout, 1 uM aptamer, TBS, 5% BSA, tRNA, sperm DNA, 37 C, binding reduced on EpCAM siRNA knockdown and nearly lost on double knockdown, label: 3'-Cy5 on EpCAM strand, variant of bispecific CD44-EpCAM aptamer) | binding result ([2]; 2'-F pyrimidines throughout, 1 uM aptamer, TBS, 5% BSA, tRNA, sperm DNA, 37 C, binding reduced on CD44 siRNA knockdown and nearly lost on CD44 plus EpCAM double knockdown, label: 3'-Cy5 on EpCAM strand, variant of bispecific CD44-EpCAM aptamer) | binding result [1, 3] | binding result [2, 3]
1 | GGGAUGGAUCCAAGCUUACUGGCAUCUGGAUUUGCGCGUGCCAGAAUAAAGAGUAUAACGUGUGAAUGGGAAGCUUCGAUAGGAAUUCGGAAAAGCUUGUUCAGGAGAUGAAAUU / GCGACUGGUUACCCGGUCGUAAAAUUUCAUCUCCUGAACAAGCUU [Cy5-CD44-EpCAM aptamer] | binds | binds | – | –
2 | GGAUCCCGACUGGCGAGAGCCAGGUAACGAAUGGAUCC [MG aptamer (malachite green control)] | – | – | no binding | no binding
